Reference: US20260152567A1 (CSPC MEGALITH BIOPHARMACEUTICAL, published 2026)
Positions count from the first letter of the chain named. Results are given in words; binding and its absence hold for the method and conditions named. Some results given as binding are weak or reduced against the parent protein; the word gives no strength.

B1: Hab7C3C2.5 (antibody, human IgG1, kappa, L234A L235A, V domains shown)
VH: QVQLVQSGAEVKKPGASVKVSCKASGYTFTSYDINWVRQATGQGLEWIGWIYPRDGFTKYNEKFKGRVTLTVNTSISTAYMELSSLRSEDTAVYYCARKEGYRGDWYFDVWGQGTTVTVSS
VL: DIQMTQSPSSLSASVGDRVTITCRASGNVHNYLAWYQQKPGKAPKLLLYNAKTLASGVPSRFSGSGSGTDYTLTISSLQPEDFATYYCQHFWSTPWTFGGGTELEIKR
notes: Humanized 7C3C2; also called Hab7C3C.5
B2: Hab1F2F9.15 (antibody, human IgG1, kappa, L234A L235A, V domains shown)
VH: QVQLVQSGAEVKKPGASVKVSCKASGYTFTSYWMHWVRQAPGQRLEWMGNINPSNGGTKYSQKFQGRVTITVDTSASTAYMELSSLRSEDTAVYYCARRDYGSPSYWGQGTTVTVSS
VL: DIQMTQSPSSLSASVGDRVTITCKASQDINSYLTWFQQKPGKAPKSLIYRTNILLDGVPSRFSGSGSGTDYTLTISSLQPEDFATYYCLQYHEFPVTFGGGTKLEIKR
notes: Humanized 1F2F9; also called Huab1F2F9.15; HuablF2F9.15
B3: Hab7C3C2.9 (antibody, human IgG1, kappa, L234A L235A, V domains shown)
VH: B1 VH with I48M, N61A, E62Q, K65Q, L70I
VL: B1 VL
notes: Humanized 7C3C2; also called Huab7C3C.9
B4: Hab1F2F9.12 (antibody, human IgG1, kappa, L234A L235A, V domains shown)
VH: B2 VH with S61N, Q62E
VL: B2 VL
notes: Humanized 1F2F9; also called Huab1F2F9.12

Molecular target: cynomolgus monkey full-length CD73 on CHO-K1 cells (cynomolgus monkey)
Assay: flow cytometry on CHO-K1 cells expressing monkey full-length CD73

Binder | binding
B1 | binds
B2 | binds

Molecular target: cynomolgus monkey CD73 protein (cynomolgus monkey)
Assay: BLI (Fortebio), cynomolgus CD73 on HIS1K biosensors, antibody as analyte

Binder | binding
B1 | binds
B3 | binds
B4 | binds
B2 | binds
